Source: patent EP0373623A2, “Pharmaceutical compositions useful in potentiating natural killer cell activity” (MERRELL DOW PHARMACEUTICALS INC., priority 1988, dated 1990)
At least one compound was matched to its structure with a doubt left.

Tested on: YAC-l lymphoma cells
Experiment: NK cell activity of spleen cells from DAP-treated mice against YAC-l targets (51Cr release, percent specific lysis)
Format: in vivo
Details: DAP i.p. at time 0 hours; the data are in an image that cannot be read

`CC(=O)NCCCCNC(C)=O` [DAP, Diacetylputrescine] was tested. Which “murine NK cell activity in vivo” value did it give?
Its value is “increased”.
